The other results are listed elsewhere or left out. The main result of the screen is listed elsewhere. These columns were measured beside it and carry no call. Compounds called inactive in the main read-out are mostly missing here. Potencies come from curve fits of mixed quality, noted in brackets.
Assay: qHTS Assay for Lipid Storage Modulators in Drosophila S3 Cells;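 for cell number change: cells counted by Cell Tracker Red CMTPX staining in the red channel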
Details: BODIPY lipid droplet fluorescence, 18-24 h; for cell number change: measured here: cell count max response, cells fed with added oleic acid
In short: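 Drosophila S3 cells got compounds at several concentrations plus oleic acid (400 uM solution). Laser-scanning cytometry with 488 nm excitation read lipid droplets at 500-530 nm and cells at 575-640 nm. Percent activity was relative to 20 uM Triacsin C.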

[1] = measured here: cell number channel AC50, cells fed with added oleic acid
[2] = measured here: lipid fluorescence (Fed channel) AC50, cells fed with added oleic acid

| Structure (SMILES) | cell number change [%] | AC50 [1] | AC50 [2] |
| --- | --- | --- | --- |
| CCOCN(C(=O)Cn1c(COC)nc2ccccc21)c1c(C)cccc1CC | 47.8 | 1.64 µM [rising, full curve] | 1.84 µM [rising, partial curve] |
| Cc1ccc(Nc2nc3ccccc3nc2-n2nc(C)cc2C)cc1 | 71.4 | 18.4 µM [rising, single point] | – |
| COc1ccc(S(=O)(=O)CCc2nc3ccccc3s2)cc1 | 2.89 | 0.058 µM [rising, full curve, poor fit] | – |
| O=C1C2=C(c3ccccc31)[N+](=O)C1CCCCC1N2[O-] (centres undefined) | 16.7 | – | 23.1 µM [rising, single point] |
| Oc1ccc(-c2[nH]ncc2-c2nc3ccccc3s2)c(O)c1 | 39.2 | 5.17 µM [rising, partial curve, poor fit] | 0.58 µM [rising, partial curve] |
| CCc1c(C)n([O-])c2c([n+]1=O)CCCCC2 | 38.6 | 0.651 µM [rising, full curve] | 5.17 µM [falling, full curve] |
| CCOC(=O)C1CCCN(C(=O)CCCn2c(=O)c3cccn3c3cccnc32)C1 (centres undefined) | 7.96 | – | 29.1 µM [rising, single point] |
| O=C(Cc1ccccc1)Nc1ccc(-c2nnc(-c3ccco3)o2)cc1 | -14.4 | – | 1.84 µM [falling, full curve, poor fit] |
| CC(C)NC(=O)CCn1ccc2cc(S(=O)(=O)N3CCCC3)ccc21 | -4.78 | – | 0.82 µM [rising, single point] |
| Cc1ccc(NS(=O)(=O)c2cc(C(=O)N3CCOCC3)ccc2C)cc1C | -51.2 | 23.1 µM [falling, single point] | – |
| O=C(NC1CCCCCC1)C1CCCN(S(=O)(=O)c2cccs2)C1 (centres undefined) | -3.91 | – | – |
| O=C(CCc1ccccc1)NNC(=O)COc1ccc(Cl)cc1 | 16.5 | 3.26 µM [rising, partial curve, poor fit] | 29.1 µM [rising, single point] |
| CCn1c(=O)cc(OCC(=O)NC(C)c2ccc3c(c2)OCCO3)c2ccccc21 (centres undefined) | 16.1 | 2.06 µM [rising, single point] | 6.51 µM [rising, single point] |
| CCOC(=O)C1(Cc2cccc(Cl)c2)CCCN(C(=O)C(C)(C)C)C1 (centres undefined) | 9.62 | – | – |
| COC(=O)CSc1nnc(-c2ccncc2)o1 | 3.12 | – | 18.4 µM [falling, partial curve, poor fit] |
| N#Cc1nc(-c2cccc3ccccc23)oc1NCCN1CCCCC1 | – | – | 0.58 µM [falling, full curve, poor fit] |
| COc1ccc(N(CC(=O)NCCSc2ccccn2)S(=O)(=O)c2ccccc2)c(OC)c1 | -3.95 | – | 3.16 µM [falling, partial curve] |
| O=C(c1ccc2ccccc2c1)N1CCN(c2ccccc2)CC1 | -0.556 | – | 16.4 µM [rising, single point] |
| Cc1csc(=Nc2c(C)n(C)n(-c3ccccc3)c2=O)n1-c1ccccc1 | -58.3 | 0.92 µM [falling, full curve] | 0.651 µM [falling, full curve, poor fit] |
| CCc1ccc(-c2nc(SCC(=O)N(CCOC)c3c(N)n(Cc4ccccc4)c(=O)[nH]c3=O)n[nH]2)cc1 | 4.91 | 0.82 µM [rising, full curve, poor fit] | 0.92 µM [rising, full curve] |

Nothing new here: entries from further up.

| Structure (SMILES) | cell number change [%] | AC50 [1] | AC50 [2] |
| --- | --- | --- | --- |
| Cc1ccc(Nc2nc3ccccc3nc2-n2nc(C)cc2C)cc1 | 71.4 | 18.4 µM [rising, single point] | – |
| COc1ccc(S(=O)(=O)CCc2nc3ccccc3s2)cc1 | 2.89 | 0.058 µM [rising, full curve, poor fit] | – |
| O=C1C2=C(c3ccccc31)[N+](=O)C1CCCCC1N2[O-] (centres undefined) | 16.7 | – | 23.1 µM [rising, single point] |
| Oc1ccc(-c2[nH]ncc2-c2nc3ccccc3s2)c(O)c1 | 39.2 | 5.17 µM [rising, partial curve, poor fit] | 0.58 µM [rising, partial curve] |
| CCc1c(C)n([O-])c2c([n+]1=O)CCCCC2 | 38.6 | 0.651 µM [rising, full curve] | 5.17 µM [falling, full curve] |

Later entries

| Structure (SMILES) | cell number change [%] | AC50 [1] | AC50 [2] |
| --- | --- | --- | --- |
| COc1cccc(NC(=O)CN(C)C(=O)c2ccc(S(=O)(=O)Nc3ccccc3F)cc2)c1 | -19.1 | – | 0.00461 µM [falling, full curve, poor fit] |
| CCOC(=O)NC(=O)CSc1ccc(C)cc1C | – | – | 0.103 µM [falling, single point] |
| COc1cccc(N2CC(NC(=O)C(=O)c3c[nH]c4ccccc34)CC2=O)c1 (centres undefined) | 85.9 | 10.3 µM [rising, partial curve] | – |
| Cc1ccc(N=CC=C2OC(C)(C)C(C)(C)O2)cc1 | 58 | 29.1 µM [rising, single point] | 29.1 µM [falling, single point] |
| N#C/C(=N\Nc1ccc([N+](=O)[O-])cc1)C(=N)N1CCOCC1 | 17.2 | 0.116 µM [rising, full curve, poor fit] | – |
| Cc1nnc(N2CCc3ccccc3C2)[nH]c1=O | 0.718 | – | 1.84 µM [falling, partial curve, poor fit] |
| O=C(NNc1c2ccccc2nc2ccccc12)c1ccccc1O | 16.7 | 2.06 µM [falling, partial curve] | 20.6 µM [falling, single point] |
| O=C(CSc1nc2ccccc2s1)N1CCOCC1 | – | – | 0.58 µM [falling, single point] |
| Cc1ccc(N2CC(C(=O)NC3CC3)CC2=O)cc1Cl (centres undefined) | 16.2 | – | 0.58 µM [falling, single point] |
| CC12CCC(=O)N1C(C(=O)OCc1c(Cl)cccc1Cl)CS2 (centres undefined) | 10.4 | – | – |
| O=C1c2ccccc2C2(c3ccc(F)cc3)NCCN12 (centres undefined) | -19.1 | 2.06 µM [falling, partial curve] | 7.31 µM [falling, partial curve] |
| CCOC(=O)C(NC(=O)c1ccccc1)(OCc1ccccc1)C(F)(F)F (centres undefined) | -55.3 | 10.3 µM [falling, partial curve] | 1.16 µM [falling, full curve] |
| CCCn1c(C(C)C)n[nH]c1=S | -24.9 | – | 5.8 µM [falling, full curve] |
| CC(OC(=O)c1ccc(O)cc1)C(=O)Nc1cc(C(F)(F)F)ccc1Cl (centres undefined) | -47.7 | 25.9 µM [falling, single point] | 29.1 µM [falling, single point] |
| CCOC(=O)C(C)c1nn(C)c(=O)c2ccccc12 (centres undefined) | -24.7 | – | – |
| CCC(C)(C)NC(=O)C(c1cccn1C)N(C(=O)Cn1nnc2ccccc21)c1ccccc1OC (centres undefined) | -5.66 | – | 29.1 µM [rising, single point] |
| CCCOc1ccc(C(=O)Nc2ccc(NC(=O)c3cccs3)cc2)cc1 | 13.3 | – | 10.3 µM [rising, partial curve] |
| C#Cc1ccc([C@@H]2C=C(C(=O)OCC=C)O[C@H](OCc3ccc(CO)cc3)C2)cc1 | 21.9 | – | 0.164 µM [rising, partial curve] |
| Cc1ccc(NC(=O)c2ccc(=O)n(CC(=O)Nc3ccccc3)n2)cc1 | -3.3 | – | – |
| Cc1ccc(CNC(=O)c2ccc(N3CCC4(CC3)CC(c3cccc(Br)c3)=NO4)c(NC(=O)c3ccccc3)c2)cc1 | 6.93 | – | 0.164 µM [falling, full curve] |

| Structure (SMILES) | cell number change [%] | AC50 [1] | AC50 [2] |
| --- | --- | --- | --- |
| Cc1ccc(C)c(-n2[nH]c3c4c(ccc3c2=O)C(=O)c2ccccc2C4=O)c1 | 11.4 | 0.164 µM [falling, full curve, poor fit] | 6.51 µM [falling, partial curve] |
| O=C(NCC1(N2CCOCC2)CCCCC1)c1ccc(Cl)c(S(=O)(=O)NCc2ccco2)c1 | -19 | – | – |
| COC(=O)CCCCCCCCC(O)C[N+]1(C)CCOCC1 (centres undefined) | 34.7 | 11.6 µM [rising, single point] | – |
| COc1ccccc1NS(=O)(=O)c1cc(C(=O)NCc2ccco2)ccc1C | 65 | 18.4 µM [rising, single point] | 1.84 µM [rising, partial curve] |
| O=C(CN1C(=O)NC2(CCCC2)C1=O)NCCC1=CCCCC1 | -37.2 | 29.1 µM [falling, single point] | 29.1 µM [falling, single point] |
| Cc1cn2nc(N)c3ccccc3c2n1 | -26.2 | – | – |
| O=C(Nc1ccc(-c2ccco2)cc1)C1CCCN(Cc2ccc(CO)o2)C1 (centres undefined) | -15.8 | – | 0.116 µM [falling, full curve, poor fit] |
| Cc1csc(SCC(=O)NCc2ccc3c(c2)OCO3)n1 | -5.81 | – | 0.164 µM [falling, partial curve, poor fit] |
| COC(=O)CSc1nnc(COc2cccc3ccccc23)o1 | -1.35 | – | – |
| O=C1CSC(c2cn(-c3ccccc3)nc2-c2ccccc2)N1Cc1ccco1 (centres undefined) | -63.2 | 5.8 µM [falling, full curve] | – |
| CCOC(=O)C1CCN(C(=O)c2ccccc2CCc2ccccc2)CC1 | -11 | – | 29.1 µM [falling, single point] |
| COc1ccc(C(C)=O)cc1COC(=O)CSCC(=O)Nc1ccc(C)cc1 | -7.64 | – | 0.259 µM [falling, full curve, poor fit] |
| CCn1c2ccccc2c2cc(NC(=O)c3cccc(OC)c3OC)ccc21 | -11.8 | – | 11.6 µM [falling, single point] |
| COc1cc(OC)cc(C(=O)Nc2ccc(S(=O)(=O)Nc3cc(C)on3)cc2)c1 | -2.46 | – | 1.16 µM [falling, full curve, poor fit] |
| O=C(Cc1ccccc1)Nc1cccnc1 | 16.6 | – | 0.231 µM [rising, full curve] |
| C#CCn1c(=NC(=O)c2ccc(S(=O)(=O)N3CCCc4ccccc43)cc2)sc2cc(S(N)(=O)=O)ccc21 | 24.9 | – | – |
| COc1cc(C2NC(=O)NC(C)=C2C(=O)OC2CCCCC2)cc(Br)c1O (centres undefined) | 29.1 | – | 6.51 µM [rising, single point] |
| CCCn1cnc2c(c1=O)c1nc3ccccc3nc1n2Cc1ccccc1OC | 136 | – | 1.46 µM [rising, partial curve] |

Reference: PubChem BioAssay AID2685 (National Center for Advancing Translational Sciences (NCATS), 2010)
